Structures can show the parent of a compound that is named as a salt.
Assay: physchem
Details: relative to initial titer; for remaining at 624 h: Titer in furosemide after 26 d; for remaining at 240 h: Titer in furosemide after 10 d; for remaining at 888 h: Titer in furosemide after 37 d
[1] = water, Sol. 6, 25° C., water, 90.4 mg/ml
[2] = water, Sol. 1, 25° C., water, 97.2 mg/ml
[3] = water, Sol. 3, 25° C., water, 275.3 mg/ml

remaining at 624 h (physiological solution, Sol. 2, 25° C., physiol. sol., 184.4 mg/ml): 99.6%
remaining at 5110 h (water with 4% mannitol, Titer in furosemide after 7 m, Sol. 7, 4° C., water containing 4% by weight of mannitol, 72.1 mg/ml): 99.9%
remaining at 8760 h (water with 4% mannitol, Titer in furosemide after 12 m, Sol. 7, 4° C., water containing 4% by weight of mannitol, 72.1 mg/ml): 99.1%
remaining at 240 h (water, Sol. 4, 60° C., water, 125.0 mg/ml): 99.3%
remaining at 240 h (water, Sol. 5, 25° C., preserved away from the light, water, 125.0 mg/ml): 100%
remaining at 240 h [1]: 99.4%
remaining at 624 h [2]: 97.7%
remaining at 624 h [3]: 99.6%
remaining at 888 h [2]: 96.8%
remaining at 888 h (water, Sol. 2, 25° C., physiol. sol., 184.4 mg/ml): 98.7%
remaining at 888 h [3]: 98.2%
remaining at 888 h [1]: 98.9%
SMILES: NS(=O)(=O)c1cc(C(=O)O)c(NCc2ccco2)cc1Cl [furosemide salt of L-lysine, L-lysine salt of furosemide]
